# According to PubChem BioAssay AID2685 (National Center for Advancing Translational Sciences (NCATS), 2010):
# Some of the results follow. Shown are side measurements of this screen, not its main read-out; they come without a call. Compounds called inactive in the main read-out are mostly missing here. Words in brackets tell the shape of the fitted curve; partial curves, single points and poor fits give uncertain potencies.
# Assay: qHTS Assay for Lipid Storage Modulators in Drosophila S3 Cells;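 as to cell number change: cells counted by Cell Tracker Red CMTPX staining in the red channel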
# Conditions: BODIPY lipid droplet fluorescence, 18-24 h; for cell number change: measured here: cell count max response, cells fed with added oleic acid
# Outline: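 Drosophila S3 cells loaded with oleic acid (400 uM, as added) and compounds at several concentrations; lipid droplets imaged by 488-nm laser-scanning cytometry, 500–530 nm intensity and object ratio to cell channel. Percent activity normalized to 20 uM Triacsin C.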
# [1] = measured here: lipid fluorescence (Fed channel) AC50, cells fed with added oleic acid
# [2] = measured here: cell number channel AC50, cells fed with added oleic acid
SMILES,cell number change,AC50 [1],AC50 [2]
COc1cccc(OC)c1C(=O)N1CCN(S(=O)(=O)c2ccc(C)cc2)CC1,0.489%,"0.92 µM [falling, full curve]",–
COc1ccc(-n2cnnc2SCC(=O)Nc2ccccc2F)cc1,36.9%,"29.1 µM [rising, single point]","16.4 µM [rising, single point]"
CN1/C(=C/C(=O)CSc2ccccc2C(=O)O)C(C)(C)c2ccccc21,1.08%,"29.1 µM [falling, single point]",–
NCC12CC3CC(CC(O)(C3)C1)C2,-89.5%,"2.06 µM [falling, full curve, poor fit]","29.1 µM [falling, single point]"
CCN(CC)CCNC(=O)CS(=O)Cc1nc(-c2ccc(Cl)cc2)oc1C (stereo not drawn),15%,"1.84 µM [rising, single point]",–
CCOc1cc(CNC)ccc1OCC(=O)NC(C)(C)C,5.1%,"0.58 µM [rising, single point]",–
Cc1ccc(NC(=O)Cc2nc(CN(C)CC(=O)Nc3ccc(C)cc3)cs2)cc1,40.3%,–,"16.4 µM [rising, single point]"
COc1ccc(NC2CCCN(C(=O)CN3C(=O)c4ccccc4C3=O)C2)cc1OC (stereo not drawn),–,"23.1 µM [falling, single point]",–
COC(=O)c1ccc(C(=O)Nc2ccc3nc(-c4ccncc4)[nH]c3c2)cc1,19.4%,"32.6 µM [rising, single point]",–
O=C(/C=C/c1cccc(Cl)c1)N1CCC(Cc2ccccc2)CC1,33.8%,–,"11.6 µM [rising, single point]"
COc1cc2ccccc2cc1C(=O)OCC(=O)N(CC(C)C)c1c(N)n(Cc2ccccc2)c(=O)[nH]c1=O,25%,"0.13 µM [rising, full curve, poor fit]","0.231 µM [rising, full curve, poor fit]"
Cc1cc(Cl)cc(Br)c1OCCNCC(C)O (stereo not drawn),0.546%,"29.1 µM [falling, single point]",–
O=C1CC(N2CCC(c3nc4ccccc4o3)CC2)C(=O)N1c1ccc(Cl)c(C(F)(F)F)c1 (stereo not drawn),-37.7%,"29.1 µM [falling, single point]","18.4 µM [falling, partial curve]"
O=C(O)CC1COc2ccccc2N1C(=O)c1ccccc1Cl (stereo not drawn),17.2%,–,"0.082 µM [falling, full curve, poor fit]"
CCCCc1c(C)c2ccc(OCC(C)=O)cc2oc1=O,34.1%,–,"16.4 µM [rising, single point]"

# A different layout for some results above.
SMILES | cell number change | AC50 [1] | AC50 [2]
COc1cccc(OC)c1C(=O)N1CCN(S(=O)(=O)c2ccc(C)cc2)CC1 | 0.489% | 0.92 µM [falling, full curve] | –
NCC12CC3CC(CC(O)(C3)C1)C2 | -89.5% | 2.06 µM [falling, full curve, poor fit] | 29.1 µM [falling, single point]
